According to PubChem BioAssay AID504444 (National Center for Advancing Translational Sciences (NCATS), 2011):
Where “and” joins values, the source holds several entries; their conditions need not be identical. Equal values may be shown once. Out of some 360,000 compounds screened, about 7,500 (2.1%) were called active. Inconclusive means that the source gave no clear call. Such entries were picked first, then a sample of the others. The call rests on the fitted dose curve; in most records, active means well fitted inhibition curve with a large enough effect; inconclusive means small, poorly fitted or top-dose-only effect, or effect the other way; inactive means flat fitted curve, though single readings scatter. A potency beside an inconclusive call is a rough fit, not a confirmed value.

Experiment: Nrf2 qHTS screen for inhibitors; further: nearly all actives have a fitted effect of over 60% in size
Details: A549 ARE-Fluc reporter, luciferase luminescence, 18-24 h; activity change, negative = inhibition: at 46 µM (top of the series)
Outline: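 Cells were seeded and rested 2 h, then exposed to compounds for 18-24 h. CellTiter-Fluor was read first as a viability measure. BugLite was added 15 min before the final luminescent read of ARE-luciferase activity in A549 cells.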
On the % scale 0 is the no-effect control and ±100 the full control effect; potency means the concentration at half of the fitted maximal effect.

Row | SMILES | Potency | activity change, negative = inhibition
1 | CCOc1ccc(-c2cc3nc(C4CCN(C(=O)OC(C)(C)C)CC4)c(C(=O)Nc4ccc(C)cc4C)cn3n2)cc1 | inconclusive: 13 µM [activator, partial curve] | 
2 | COc1ccccc1N1CCN(C(=O)c2cc3ccc4ccc(C)[nH]c4c3n2)CC1 |  | inactive: -13.1%
3 | CC(CNC(=O)c1cc(COc2ccc3ncccc3c2)on1)c1ccccc1 (stereo not given) | active: 14.6 µM | 
4 | Cc1cc(NC(=O)Nc2cccc([N+](=O)[O-])c2)no1 |  | inactive: -11.5%
5 | COc1ccc(-c2c(C)cc3oc(=O)cc(-c4ccccc4)c3c2C)cc1OC | inconclusive: 29.1 µM [falling, single point] | 
6 | CCOC(=O)C1CCCN(S(=O)(=O)c2csc(C(N)=O)c2)C1 (stereo not given) | inconclusive: 18.4 µM [falling, partial curve] | 
7 | CCOc1cc(/C=N/NC(=O)Cn2nc([N+](=O)[O-])cc2C)cc(Br)c1OCc1ccccc1C | inconclusive: 32.6 µM [falling, single point] | 
8 | CCC(C)NC(=O)c1nc2c(nnn2Cc2ccccc2Cl)c(=O)[nH]1 (stereo not given) |  | inactive: -23.2%
9 | Cc1cccc(NC(=O)Cc2csc(COc3cccc(C)c3)n2)c1 |  | inactive: -1.67%
10 | O=C(NC(=S)Nc1cnc2ccccc2c1)c1ccccc1 | inconclusive: 2.91 µM [activator, partial curve] | 
11 | CCCCCCCCCNC(=O)[C@H](NC(=O)COc1ccccc1)[C@@H]1NC(C(=O)OC)C(C)(C)S1 (stereo not given in full) | inconclusive: 29.1 µM [falling, single point] | 
12 | Cc1cccc(C(=O)NCC(=O)OCc2cc(=O)n3nc(C4CC4)sc3n2)c1 | inconclusive: 29.1 µM [activator, single point] | 
13 | Cc1cc(C)cc(NC(=O)CCc2c(C)nc3c4cccnc4nn3c2C)c1 | inconclusive: 3.66 µM [falling, single point] | 
14 | CCCN1CCN(C(c2cc3cc4c(cc3[nH]c2=O)OCO4)c2nnnn2C(C)(C)C)CC1 (stereo not given) |  | inactive: 0.016%
15 | COC(=O)c1cc(NC(=O)c2cccc([N+](=O)[O-])c2C)ccc1Cl | inconclusive: 29.1 µM [falling, single point] | 
16 | COc1cc(NC(=O)c2ccc(NC(=O)N3CCSc4ncccc43)cc2)cc(OC)c1 |  | inactive: -8.48%
17 | CC(C)(C)OC(=O)N1CCC(c2c(C(=O)N3CCN(C(=O)c4ccco4)CC3)cnn2-c2ccccc2)CC1 | inconclusive: 11.6 µM [activator, partial curve] | 
18 | COc1ccc(OC)c2[nH]c(=O)c(CCNC(=O)c3ccc4c(c3)OCO4)cc12 | inconclusive: 16.4 µM [falling, partial curve, poor fit] | 
19 | Cc1cccc(CCNC(=O)C2CCCN(S(=O)(=O)c3ccc4c(c3)oc(=O)n4C)C2)c1 (stereo not given) |  | inactive: -12.5%
20 | Cc1ccc2nc(-c3ccc(NC(=S)NC(=O)C(C)C)cc3)sc2c1 | inconclusive: 0.411 µM [activator, full curve] | 
21 | O=C(Nc1cccc(-c2ccc(N3CCCCC3)nn2)c1)C(F)(F)F | inconclusive: 29.1 µM [falling, single point] | 
22 | CNc1nc(-c2ccc3c(c2)CCN3C(=O)c2cccc(F)c2)cs1 | inconclusive: 20.6 µM [falling, single point] | 

Row | SMILES | Potency | activity change, negative = inhibition
23 | COc1ccc(NC(=O)CCN2CCN(S(=O)(=O)c3cc(Cl)ccc3Cl)CC2)cc1 | inconclusive: 20.6 µM [falling, partial curve, poor fit] | 
24 | CN1CCN(S(=O)(=O)c2ccc(Nc3cccc(Cl)c3)c([N+](=O)[O-])c2)CC1 | inconclusive: 9.2 µM [falling, partial curve, poor fit] | 
25 | FC(F)(F)c1cnc(/C=C/Nc2ccccc2Cl)c(Cl)c1 | inconclusive: 0.13 µM [activator, full curve, poor fit] | 
26 | O=C(CSc1cn(CC(=O)N2CCCC2)c2ccccc12)Nc1cc(C(F)(F)F)ccc1Cl | inconclusive: 29.1 µM [falling, single point] | 
27 | Cc1ccc(/C=C2/SC(=S)N(CCC(=O)N3CCN(C)CC3)C2=O)cc1 | inconclusive: 29.1 µM [activator, single point] | 
28 | O=C(c1ccc(CS(=O)c2ccccc2Cl)o1)N1CCN(c2cccc(Cl)c2)CC1 (stereo not given) | inconclusive: 29.1 µM [falling, single point] | 
29 | COc1ccc(C(CNC(=O)c2cccc(N(C)C)c2)N2CCCC2)cc1 (stereo not given) |  | inactive: 19.5%
30 | COc1c(-c2ccc(O)c(O)c2)oc2cc(O)cc(O)c2c1=O |  | inactive: 1.94%
31 | COc1ccccc1N1CCN(C(=O)COc2ccc(Cl)cc2Br)CC1 | inconclusive: 25.9 µM [falling, partial curve] | 
32 | Clc1ccccc1-c1nnc(-c2cccnc2)o1 | inconclusive: 14.6 µM [activator, partial curve] | 
33 | CC(CNC(=O)CCCn1c(=O)c2cccn2c2cccnc21)c1ccccc1 (stereo not given) | inconclusive: 16.4 µM [falling, partial curve, poor fit] | 
34 | O=C(Nc1ccc(Cl)cc1)Nc1ccc(N2CCCC2)c(S(=O)(=O)Nc2ccccc2Cl)c1 | active: 3.26 µM | 
35 | COC(=O)c1ccc(O)cc1 | inconclusive: 6.51 µM [activator, partial curve, poor fit] | 
36 | Cc1ccc(Cl)cc1N1CCN(C(=O)CN(c2ccccc2)S(=O)(=O)N(C)C)CC1 | inconclusive: 32.6 µM [falling, single point] | 
37 | COc1cccc(CNC(=O)c2ccc(NC(=O)N3CC(C)Sc4ccccc43)cc2)c1 (stereo not given) | inconclusive: 18.4 µM [falling, single point] | 
38 | CC(Oc1ccccc1)C(=O)Nc1cccc(F)c1 (stereo not given) | inconclusive: 4.61 µM [falling, partial curve] | 
39 | CC(C)(C)OC(=O)COc1cc(O)c2c(=O)cc(-c3ccccc3)oc2c1 | inconclusive: 32.6 µM [falling, single point] | 
40 | O=C(NCCO)C1CCN(C(=O)c2ccc(-c3ccccc3)cc2)CC1 |  | inactive: -20%
41 | Cc1ccccc1Nc1c(-c2ccncc2)nc2ccc(Cl)cn12 | inconclusive: 32.6 µM [activator, partial curve, poor fit] and inconclusive: 29.1 µM [activator, single point] | 
42 | CC(C)c1ccc(N(CC(=O)N2CCOCC2)S(C)(=O)=O)cc1 | inconclusive: 7.31 µM [activator, partial curve, poor fit] | 
43 | COc1ccc(/C=C(/C#N)c2nc(-c3ccc(Br)cc3)cs2)cc1 | inconclusive: 2.59 µM [falling, full curve, poor fit] | 
44 | O=[N+]([O-])c1ccc(N2CCN(c3cccc(Cl)c3)CC2)cn1 | inconclusive: 13 µM [falling, partial curve, poor fit] | 

From compound 28 to 44, copied from above:
Row | SMILES | Potency | activity change, negative = inhibition
28 | O=C(c1ccc(CS(=O)c2ccccc2Cl)o1)N1CCN(c2cccc(Cl)c2)CC1 (stereo not given) | inconclusive: 29.1 µM [falling, single point] | 
29 | COc1ccc(C(CNC(=O)c2cccc(N(C)C)c2)N2CCCC2)cc1 (stereo not given) |  | inactive: 19.5%
30 | COc1c(-c2ccc(O)c(O)c2)oc2cc(O)cc(O)c2c1=O |  | inactive: 1.94%
31 | COc1ccccc1N1CCN(C(=O)COc2ccc(Cl)cc2Br)CC1 | inconclusive: 25.9 µM [falling, partial curve] | 
32 | Clc1ccccc1-c1nnc(-c2cccnc2)o1 | inconclusive: 14.6 µM [activator, partial curve] | 
33 | CC(CNC(=O)CCCn1c(=O)c2cccn2c2cccnc21)c1ccccc1 (stereo not given) | inconclusive: 16.4 µM [falling, partial curve, poor fit] | 
34 | O=C(Nc1ccc(Cl)cc1)Nc1ccc(N2CCCC2)c(S(=O)(=O)Nc2ccccc2Cl)c1 | active: 3.26 µM | 
35 | COC(=O)c1ccc(O)cc1 | inconclusive: 6.51 µM [activator, partial curve, poor fit] | 
36 | Cc1ccc(Cl)cc1N1CCN(C(=O)CN(c2ccccc2)S(=O)(=O)N(C)C)CC1 | inconclusive: 32.6 µM [falling, single point] | 
37 | COc1cccc(CNC(=O)c2ccc(NC(=O)N3CC(C)Sc4ccccc43)cc2)c1 (stereo not given) | inconclusive: 18.4 µM [falling, single point] | 
38 | CC(Oc1ccccc1)C(=O)Nc1cccc(F)c1 (stereo not given) | inconclusive: 4.61 µM [falling, partial curve] | 
39 | CC(C)(C)OC(=O)COc1cc(O)c2c(=O)cc(-c3ccccc3)oc2c1 | inconclusive: 32.6 µM [falling, single point] | 
40 | O=C(NCCO)C1CCN(C(=O)c2ccc(-c3ccccc3)cc2)CC1 |  | inactive: -20%
41 | Cc1ccccc1Nc1c(-c2ccncc2)nc2ccc(Cl)cn12 | inconclusive: 32.6 µM [activator, partial curve, poor fit] and inconclusive: 29.1 µM [activator, single point] | 
42 | CC(C)c1ccc(N(CC(=O)N2CCOCC2)S(C)(=O)=O)cc1 | inconclusive: 7.31 µM [activator, partial curve, poor fit] | 
43 | COc1ccc(/C=C(/C#N)c2nc(-c3ccc(Br)cc3)cs2)cc1 | inconclusive: 2.59 µM [falling, full curve, poor fit] | 
44 | O=[N+]([O-])c1ccc(N2CCN(c3cccc(Cl)c3)CC2)cn1 | inconclusive: 13 µM [falling, partial curve, poor fit] | 

(continued)

Row | SMILES | Potency | activity change, negative = inhibition
45 | CCC(=O)N1CCc2cc(S(=O)(=O)CCC(=O)NCc3cccc(OC)c3)ccc21 | inactive | 
46 | CCOC(=O)c1c(N)sc(=S)c2c1CCC2 | inconclusive: 32.6 µM [falling, partial curve, poor fit] | 
47 | CCOC(=O)CC1C(=O)NCCN1c1nc2c(C)cccn2c(=O)c1/C=C1\SC(=S)N(C(C)CC)C1=O (stereo not given) | inconclusive: 18.4 µM [falling, single point] | 
48 | N/C(=N\c1nc2ccccc2o1)NC(=O)c1ccccc1 | inconclusive: 2.59 µM [activator, full curve] | 
49 | O=C(Nc1cccc(S(=O)(=O)Nc2ccc(Cl)cc2)c1)c1ccc(Cl)nc1 | active: 3.26 µM | 
50 | Cc1nc(CS(=O)(=O)c2ccccc2)cc(Sc2ccc(Cl)cc2)n1 | inconclusive: 8.2 µM [activator, partial curve, poor fit] | 
51 | CC(=O)Nc1nc(-c2ccc3ccccc3c2)cs1 | inconclusive: 2.59 µM [activator, full curve] | 
52 | COCC(=O)OCC(=O)Nc1cc([N+](=O)[O-])ccc1Cl | inconclusive: 14.6 µM [activator, partial curve, poor fit] | 
53 | Cc1nn(CC(C)C)c(Cl)c1C(=O)N(c1ccc(Cl)cc1F)S(C)(=O)=O | inconclusive: 29.1 µM [activator, single point] | 
54 | Cc1cc(C(=O)NNC(=O)c2cccc(C(F)(F)F)c2)no1 | inconclusive: 3.26 µM [falling, partial curve, poor fit] | 
55 | Cn1cc(C(=O)N2CCN(C(=O)c3ccco3)CC2)c2c3ccccc3n(C)c2c1=O | inconclusive: 14.6 µM [falling, partial curve, poor fit] | 
56 | CCOc1ccc(NC(=O)n2ncc3c(C)cccc32)cc1 | inconclusive: 8.2 µM [activator, partial curve] | 
57 | CC(C)CCn1c(O)c(N=NC(=O)c2ccco2)c2ccccc21 |  | inactive: -10.7%
58 | Cc1ccsc1C(=O)OCC(=O)NCc1ccco1 |  | inactive: 0.06%
59 | O=C(NCC(c1ccccc1)c1ccccc1)c1nn(-c2ccccc2F)nc1CO | inconclusive: 5.8 µM [falling, full curve] | 
60 | O=C1CSC(c2cn(-c3ccccc3)nc2-c2cc3ccccc3oc2=O)N1Cc1ccco1 (stereo not given) |  | inactive: -19.1%
61 | Cc1nc(NCc2cccnc2)c2c3c(sc2n1)CCCC3 | inconclusive: 3.66 µM [activator, full curve, poor fit] | 
62 | CC1(c2nnc(-c3ccc(Cl)cc3)o2)CC(c2cccc(Cl)c2)=NO1 (stereo not given) |  | inactive: 2.18%
63 | CC(C)n1nnnc1SCC(=O)c1ccc2c(c1)OCCO2 | inconclusive: 29.1 µM [activator, single point] | 
64 | CCCn1c2ccccc2c2cnn(CC(=O)NC(CCSC)C(=O)OC)c(=O)c21 (stereo not given) | inconclusive: 29.1 µM [activator, single point] | 
65 | COc1ccc(Br)cc1CNc1ccc(N2CCOCC2)cc1 | inconclusive: 4.61 µM [falling, partial curve, poor fit] | 
